From patent US20040166530A1 (BAYLOR COLLEGE OF MEDICINE, published 2004)
Results are given in words; binding and its absence hold for the method and conditions named. In cells and extracts the contact can be indirect. Some entries that bind do so weakly or less than the wild type. For some assays here: Sequences can lack the tags named with a protein.

Chains of the proteins cited; added tags and fusions are not shown. Lines headed by an entry give the natural chain unless they say otherwise; changes in a name come on top. Residues count along the entry.
UniProt P30283: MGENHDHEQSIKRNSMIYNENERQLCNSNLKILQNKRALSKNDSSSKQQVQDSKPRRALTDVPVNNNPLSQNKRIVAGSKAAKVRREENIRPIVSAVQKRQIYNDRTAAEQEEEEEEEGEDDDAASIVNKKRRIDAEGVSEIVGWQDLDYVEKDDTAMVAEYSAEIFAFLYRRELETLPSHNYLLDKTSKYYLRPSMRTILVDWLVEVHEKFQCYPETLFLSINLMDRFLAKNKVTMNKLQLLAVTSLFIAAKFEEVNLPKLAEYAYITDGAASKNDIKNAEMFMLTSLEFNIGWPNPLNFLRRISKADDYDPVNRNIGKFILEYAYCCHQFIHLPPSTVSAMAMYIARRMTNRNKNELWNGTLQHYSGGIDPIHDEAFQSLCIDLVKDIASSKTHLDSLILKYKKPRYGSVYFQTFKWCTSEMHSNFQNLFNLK
UniProt P00546: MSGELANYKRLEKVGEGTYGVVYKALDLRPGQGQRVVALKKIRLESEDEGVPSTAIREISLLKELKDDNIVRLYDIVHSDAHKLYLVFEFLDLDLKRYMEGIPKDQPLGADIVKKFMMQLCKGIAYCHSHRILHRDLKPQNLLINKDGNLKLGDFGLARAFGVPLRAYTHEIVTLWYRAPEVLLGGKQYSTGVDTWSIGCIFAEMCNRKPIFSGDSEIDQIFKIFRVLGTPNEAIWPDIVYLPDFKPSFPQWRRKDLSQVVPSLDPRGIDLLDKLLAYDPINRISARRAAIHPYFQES
UniProt P52286, residues 2-194: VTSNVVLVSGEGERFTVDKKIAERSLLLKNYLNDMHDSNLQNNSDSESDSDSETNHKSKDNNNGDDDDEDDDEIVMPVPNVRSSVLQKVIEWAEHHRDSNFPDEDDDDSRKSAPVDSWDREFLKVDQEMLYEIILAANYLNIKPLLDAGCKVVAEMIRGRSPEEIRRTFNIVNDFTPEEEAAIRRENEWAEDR
UniProt P38634: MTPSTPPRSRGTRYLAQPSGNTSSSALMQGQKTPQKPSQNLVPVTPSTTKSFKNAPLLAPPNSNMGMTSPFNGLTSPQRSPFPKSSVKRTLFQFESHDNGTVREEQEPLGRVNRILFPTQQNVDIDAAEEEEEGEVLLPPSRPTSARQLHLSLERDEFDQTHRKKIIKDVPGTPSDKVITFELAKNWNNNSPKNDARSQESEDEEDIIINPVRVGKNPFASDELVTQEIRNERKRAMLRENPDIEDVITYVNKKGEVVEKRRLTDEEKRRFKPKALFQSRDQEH

T1: Myc-tagged Cdc53 (Cdc53^M) (S. cerevisiae, UniProt Q12018 1-815)
T1 construct: Expressed from baculovirus in insect cells; not shown: N-terminal Myc tag
T1 sequence (looked up): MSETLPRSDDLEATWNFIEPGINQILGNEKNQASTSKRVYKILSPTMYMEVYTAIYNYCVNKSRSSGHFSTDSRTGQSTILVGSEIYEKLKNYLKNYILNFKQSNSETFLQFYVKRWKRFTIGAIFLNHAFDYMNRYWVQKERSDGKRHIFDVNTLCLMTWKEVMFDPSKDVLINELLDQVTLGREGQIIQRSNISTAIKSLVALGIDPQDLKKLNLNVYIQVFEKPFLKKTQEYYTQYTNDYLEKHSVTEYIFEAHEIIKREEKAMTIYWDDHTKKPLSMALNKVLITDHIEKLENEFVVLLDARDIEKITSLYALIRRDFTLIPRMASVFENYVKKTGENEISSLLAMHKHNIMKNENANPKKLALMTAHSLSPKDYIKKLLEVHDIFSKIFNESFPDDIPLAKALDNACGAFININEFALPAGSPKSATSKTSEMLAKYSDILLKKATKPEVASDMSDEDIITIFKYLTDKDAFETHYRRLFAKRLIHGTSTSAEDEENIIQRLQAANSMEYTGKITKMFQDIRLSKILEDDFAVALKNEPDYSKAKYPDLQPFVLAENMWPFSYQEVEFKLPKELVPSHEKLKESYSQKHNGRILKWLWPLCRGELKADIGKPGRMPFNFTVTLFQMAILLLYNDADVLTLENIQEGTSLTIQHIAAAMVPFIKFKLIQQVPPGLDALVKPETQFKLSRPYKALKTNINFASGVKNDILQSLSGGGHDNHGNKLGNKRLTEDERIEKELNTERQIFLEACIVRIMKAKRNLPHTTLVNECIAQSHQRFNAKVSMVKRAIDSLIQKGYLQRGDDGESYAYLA

B1: Gene 10-tagged Grr1 (Grr1^G10) (protein, S. cerevisiae, UniProt P24814 1-1151, looked up, not shown: small tags and cut ends)
chain: MDQDNNNHNDSNRLHPPDIHPNLGPQLWLNSSGDFDDNNNNNNNNNNNNSTRPQMPSRTRETATSERNASEVRDATLNNIFRFDSIQRETLLPTNNGQPLNQNFSLTFQPQQQTNALNGIDINTVNTNLMNGVNVQIDQLNRLLPNLPEEERKQIHEFKLIVGKKIQEFLVVIEKRRKKILNEIELDNLKLKELRIDNSPQAISYLHKLQRMRLRALETENMEIRNLRLKILTIIEEYKKSLYAYCHSKLRGQQVENPTDNFIIWINSIDTTESSDLKEGLQDLSRYSRQFINNVLSNPSNQNICTSVTRRSPVFALNMLPSEILHLILDKLNQKYDIVKFLTVSKLWAEIIVKILYYRPHINKKSQLDLFLRTMKLTSEETVFNYRLMIKRLNFSFVGDYMHDTELNYFVGCKNLERLTLVFCKHITSVPISAVLRGCKFLQSVDITGIRDVSDDVFDTLATYCPRVQGFYVPQARNVTFDSLRNFIVHSPMLKRIKITANNNMNDELVELLANKCPLLVEVDITLSPNVTDSSLLKLLTRLVQLREFRITHNTNITDNLFQELSKVVDDMPSLRLIDLSGCENITDKTIESIVNLAPKLRNVFLGKCSRITDASLFQLSKLGKNLQTVHFGHCFNITDNGVRALFHSCTRIQYVDFACCTNLTNRTLYELADLPKLKRIGLVKCTQMTDEGLLNMVSLRGRNDTLERVHLSYCSNLTIYPIYELLMSCPRLSHLSLTAVPSFLRPDITMYCRPAPSDFSENQRQIFCVFSGKGVHKLRHYLVNLTSPAFGPHVDVNDVLTKYIRSKNLIFNGETLEDALRRIITDLNQDSAAIIAATGLNQINGLNNDFLFQNINFERIDEVFSWYLNTFDGIRMSSEEVNSLLLQVNKTFCEDPFSDVDDDQDYVVAPGVNREINSEMCHIVRKFHELNDHIDDFEVNVASLVRVQFQFTGFLLHEMTQTYMQMIELNRQICLVQKTVQESGNIDYQKGLLIWRLLFIDKFIMVVQKYKLSTVVLRLYLKDNITLLTRQRELLIAHQRSAWNNNNDNDANRNANNIVNIVSDAGANDTSNNETNNGNDDNETENPNFWRQFGNRMQISPDQMRNLQMGLRNQNMVRNNNNNTIDESMPDTAIDSQMDEASGTPDEDML

How the values were obtained:
[1] = molecular target: Clb5/Gst-Cdc28HA(K-) complex (S. cerevisiae) (UniProt P30283+P00546); assay: co-purification on GSH-Sepharose from co-infected insect cells
[2] = molecular target: T1, Myc-tagged Cdc53 (Cdc53^M); assay: co-immunoprecipitation from co-infected insect cells, immunoblot
Skp1 (S. cerevisiae) [3] = molecular target: Skp1 (S. cerevisiae) (UniProt P52286); assay: as above
[4] = molecular target: T1, Myc-tagged Cdc53 (Cdc53^M); assay: co-immunoprecipitation from co-infected insect cells, immunoblot (FIG. 4A)
Skp1 (S. cerevisiae) [5] = molecular target: Skp1 (S. cerevisiae) (UniProt P52286); assay: as above

Row | Molecule | binding [1] | binding [2] | binding (Skp1 (S. cerevisiae) [3]) | binding [4] | binding (Skp1 (S. cerevisiae) [5])
1 | unphosphorylated Sic1 (from UniProt P38634 1-284) | binds |  |  |  | 
2 | B1 |  | binds | binds | binds | binds
